Drawing on publication PMC5996148, this text covers binding signal for 1 sequence.

Protein sequences, listed by entry. Tags and fused reporters are not part of them.
UniProt P42830, whole entry: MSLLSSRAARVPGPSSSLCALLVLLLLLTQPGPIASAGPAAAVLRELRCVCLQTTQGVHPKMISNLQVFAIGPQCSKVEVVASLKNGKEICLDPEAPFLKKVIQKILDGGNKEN

What all share (assay): protein microarray (ProtoArray v5.0), streptavidin-Alexa Fluor 647
What all share (settings): 3'-biotin; 20 mM Tris (pH 7.5), 5 mM MgCl2, 100 mM KCl, 0.1% Tween-20, A/T-rich and random oligonucleotide blockers; temperature not stated; high values mean tight binding

Assay [1] concerns the target CXCL5 (UniProt P42830).
In assay [2] the test system is CYB5B (human).
Assay [3] relates to CYFIP2 (human).
Assay [4] has as its target T1, CYP1A1 (UniProt P04798).
T1 sequence: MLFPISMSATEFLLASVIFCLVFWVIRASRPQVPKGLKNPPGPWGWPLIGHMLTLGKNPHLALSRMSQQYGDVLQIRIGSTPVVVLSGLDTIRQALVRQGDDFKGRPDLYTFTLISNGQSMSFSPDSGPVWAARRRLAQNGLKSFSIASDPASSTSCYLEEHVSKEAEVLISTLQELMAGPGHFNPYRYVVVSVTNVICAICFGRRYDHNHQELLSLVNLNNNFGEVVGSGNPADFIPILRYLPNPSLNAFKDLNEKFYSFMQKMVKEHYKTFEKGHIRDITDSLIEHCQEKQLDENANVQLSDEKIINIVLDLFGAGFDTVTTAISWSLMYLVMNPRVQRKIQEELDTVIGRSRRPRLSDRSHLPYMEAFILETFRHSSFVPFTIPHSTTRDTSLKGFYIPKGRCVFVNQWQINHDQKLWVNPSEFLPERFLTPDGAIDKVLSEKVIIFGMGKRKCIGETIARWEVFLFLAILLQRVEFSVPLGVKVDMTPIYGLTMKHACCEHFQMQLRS

Assay [5] concerns CYP20A1 (human).
Assay [6] concerns CYP27A1 (human).
In assay [7] the test system is CYP4F11 (human).
For assay [8], the system named is CYTL1 (human).
Assay [9] relates to Calcium-binding protein 39-like (human).
The subject of assay [10] is Calcium-transporting ATPase type 2C member 1 (human).
Assay [11] relates to Calcium/calmodulin-dependent protein kinase type 1 (human).
Assay [12] relates to Calcyclin-binding protein (human).
The test system of assay [13] is Calretinin (human).
Assay [14] concerns Carbonic anhydrase 3 (human).
Assay [15] concerns Carboxypeptidase A2 (human).
The subject of assay [16] is Casein kinase I isoform gamma-2 (human).
Assay [17] relates to Caspase recruitment domain-containing protein 14 (human).
Assay [18] deals with Caspase recruitment domain-containing protein 9 (human).
The test system of assay [19] is Centromere protein Q (human).
The test system of assay [20] is Ciliary neurotrophic factor (human).

The other results are listed elsewhere or left out. For some assays here: The exact form of the protein is not confirmed.

For the sequence “GGTGACAGGGGTATGGGGAGGGG [G4-2 biotinylated (Ct1)]”, the binding signal was -0.359 z-score in assay [1]; -0.387 z-score in [2]; -0.404 z-score in assay [3]; -0.38 z-score in assay [4]; -0.379 z-score in assay [5]; -0.363 z-score in assay [6]. For the same sequence, the binding signal was -0.378 z-score in [7]; -0.369 z-score in assay [8]; -0.399 z-score in assay [9]; -0.366 z-score in assay [10]; -0.401 z-score in [11]; 4.06 z-score in assay [12]. In addition, the binding signal in assay [13] is -0.38 z-score; in [14], -0.386 z-score; in assay [15] it was -0.376 z-score; in [16], 4.69 z-score; in [17], -0.371 z-score; in assay [18], -0.375 z-score. Also, the figures for the binding signal in assay [19] and in [20] were -0.404 z-score and -0.398 z-score, respectively.
